Experiment [1] concerns the target HA–HIF-1α P402A/P564A, a stabilized form of HIF-1α, plasmid-expressed in HEK293 cells (UniProt Q16665). Description: co-IP; HEK293 cells transfected with FLAG-YAP, Myc-TEAD1 and HA–HIF-1α P402A/P564A together; 3 μM MG-132 24 h before harvest; lysate (150 μg) with antibody (4 μg) covalently linked to Protein G-Sepharose, 4°C, 2 h; lysis buffer 10 mM Tris pH 7.5, 150 mM NaCl, 5 mM EDTA, 1% Triton X-100, 50 mM NaF, 10% glycerol; immunoblot. In general terms: A western blot detects proteins with antibodies after separation by electrophoresis.

Protein sequences, listed by entry. Tags and fused reporters are not part of them. Lines headed by an entry give the natural chain unless they say otherwise; changes in a name come on top.
UniProt Q16665: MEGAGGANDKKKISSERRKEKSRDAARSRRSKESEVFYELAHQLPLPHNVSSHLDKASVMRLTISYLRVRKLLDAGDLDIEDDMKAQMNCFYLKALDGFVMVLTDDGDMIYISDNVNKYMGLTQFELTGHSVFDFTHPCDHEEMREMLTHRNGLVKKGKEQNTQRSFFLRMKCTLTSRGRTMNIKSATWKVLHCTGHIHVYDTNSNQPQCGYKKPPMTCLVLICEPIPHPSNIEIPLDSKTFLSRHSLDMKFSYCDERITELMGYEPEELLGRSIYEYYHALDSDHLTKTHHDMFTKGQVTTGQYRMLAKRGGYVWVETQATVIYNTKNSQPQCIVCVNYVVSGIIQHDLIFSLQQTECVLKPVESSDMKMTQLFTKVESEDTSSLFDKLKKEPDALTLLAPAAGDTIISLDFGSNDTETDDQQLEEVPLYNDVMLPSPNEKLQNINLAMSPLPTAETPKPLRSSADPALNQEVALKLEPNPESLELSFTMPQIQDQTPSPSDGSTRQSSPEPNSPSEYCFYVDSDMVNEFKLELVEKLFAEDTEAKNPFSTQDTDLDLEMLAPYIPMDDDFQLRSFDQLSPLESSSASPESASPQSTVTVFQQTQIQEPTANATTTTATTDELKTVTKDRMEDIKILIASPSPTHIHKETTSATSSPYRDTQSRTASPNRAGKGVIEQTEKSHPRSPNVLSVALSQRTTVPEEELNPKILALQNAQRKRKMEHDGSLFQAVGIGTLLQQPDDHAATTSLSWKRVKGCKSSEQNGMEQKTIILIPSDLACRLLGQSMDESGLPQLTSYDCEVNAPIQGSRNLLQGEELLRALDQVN
UniProt P46937: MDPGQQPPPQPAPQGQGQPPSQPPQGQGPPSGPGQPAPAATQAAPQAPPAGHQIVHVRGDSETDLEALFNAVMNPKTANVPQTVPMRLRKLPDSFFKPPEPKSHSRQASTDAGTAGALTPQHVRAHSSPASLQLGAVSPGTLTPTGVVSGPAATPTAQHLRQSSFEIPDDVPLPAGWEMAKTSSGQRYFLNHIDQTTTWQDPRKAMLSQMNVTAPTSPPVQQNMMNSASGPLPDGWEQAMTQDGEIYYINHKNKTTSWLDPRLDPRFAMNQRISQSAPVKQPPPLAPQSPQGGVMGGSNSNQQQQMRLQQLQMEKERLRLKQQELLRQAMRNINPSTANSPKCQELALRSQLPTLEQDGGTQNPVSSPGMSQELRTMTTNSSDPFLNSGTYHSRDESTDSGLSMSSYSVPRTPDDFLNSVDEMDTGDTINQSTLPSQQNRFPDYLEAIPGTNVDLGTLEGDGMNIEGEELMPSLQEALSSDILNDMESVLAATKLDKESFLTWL

Experiment [2] shares this target. Description: co-IP; HEK293 cells in which only 2 of the 3 proteins (FLAG-YAP, Myc-TEAD1, HA–HIF-1α P402A/P564A) were overexpressed; lysate with antibody covalently linked to Protein G-Sepharose, 4°C, 2 h; immunoblot.
The target in experiment [3] is glutathione S-transferase–YAP (GST-YAP) (human) (UniProt P46937). The experiment in a line: pull-down; GST-fused bait on glutathione-sepharose 4B incubated with two recombinant proteins in combination (also with rising amounts of recombinant YAP); binding buffer 10 mM HEPES pH 7.9, 2.5 mM MgCl2, 50 mM KCl, 150 mM NaCl, 5% glycerol, 1 mM DTT, 0.1% NP-40; 2 h, 4°C; immunoblot; both purified.

Experiment [4] shares this target. The experiment in a line: pull-down; GST-fused bait on glutathione-sepharose 4B incubated with one recombinant protein alone (individually); binding buffer 10 mM HEPES pH 7.9, 2.5 mM MgCl2, 50 mM KCl, 150 mM NaCl, 5% glycerol, 1 mM DTT, 0.1% NP-40; 2 h, 4°C; immunoblot; both purified.
Experiment [5] concerns the target GST–HIF-1α (human) (UniProt Q16665). The experiment in a line: pull-down; GST-fused bait on glutathione-sepharose 4B incubated with two recombinant proteins in combination (also with rising amounts of recombinant YAP); binding buffer 10 mM HEPES pH 7.9, 2.5 mM MgCl2, 50 mM KCl, 150 mM NaCl, 5% glycerol, 1 mM DTT, 0.1% NP-40; 2 h, 4°C; immunoblot; both purified.
For experiment [6] the target is unchanged. The experiment in a line: pull-down; GST-fused bait on glutathione-sepharose 4B incubated with one recombinant protein alone (individually); binding buffer 10 mM HEPES pH 7.9, 2.5 mM MgCl2, 50 mM KCl, 150 mM NaCl, 5% glycerol, 1 mM DTT, 0.1% NP-40; 2 h, 4°C; immunoblot; both purified.
Experiment [7] concerns the target HA–HIF-1α P402A/P564A expressed from adenovirus (Ad-HA–HIF-1α P402A/P564A) in neonatal rat ventricular myocytes (UniProt Q16665). Description: co-IP; NRVMs transduced with Ad-FLAG-YAP, Ad-Myc-TEAD1 and Ad-HA–HIF-1α P402A/P564A together; 3 μM MG-132 24 h before harvest; lysate (150 μg) with antibody (4 μg) covalently linked to Protein G-Sepharose, 4°C, 2 h; lysis buffer 10 mM Tris pH 7.5, 150 mM NaCl, 5 mM EDTA, 1% Triton X-100, 50 mM NaF, 10% glycerol; immunoblot.

Results are given in words; binding and its absence hold for the method and conditions named. For some of these results: In cells and extracts the contact can be indirect. Some entries that bind do so weakly or less than the wild type.

On to “FLAG-YAP (Yes-associated protein 1), plasmid-expressed in HEK293 cells (from UniProt P46937 1-504)”, for which the binding result in experiment [1] and in experiment [2] was “binds” each time.
As to “recombinant HIF-1α (from UniProt Q16665 1-826)”, the binding entry in experiment [3] and in experiment [4] was “binds” in each case.
With “recombinant YAP (from UniProt P46937 1-504)”, the binding entry in the experiment with GST–HIF-1α (human) [5] and in the experiment with GST–HIF-1α (human) [6] was “binds” throughout.
As to “FLAG-YAP expressed from adenovirus (Ad-FLAG-YAP) in neonatal rat ventricular myocytes (from UniProt P46937 1-504)”, the binding result in experiment [7] is “binds”.
